Reference: PubChem BioAssay AID686943 (Drosophila RNAi Screening Center, 2013)
In all, the deposit lists about 23,000 reagents; shown is a random part of those that have a named target and a result. 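Extra replicates exist only for a retested subset of genes; insulin dose and duration not given; both raised and lowered dpERK matter.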 The numbers tell different reagents against one gene apart. A plus sign joins genes that one reagent is predicted to hit. The record does not give: the amount of reagent, the time to read-out.

Aim: 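Fly genes whose loss alters ERK activation after insulin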 (primary screen)
Cell system: Drosophila S2R+ haemocyte-like cells expressing YFP-tagged ERK (Rolled)
Knock-down reagent: long dsRNA against Drosophila genes
Conditions: insulin stimulation versus unstimulated cells; dose and duration not given
Read-out: 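Per-plate z-scores of phospho-ERK immunostaining normalised to YFP-tagged ERK, measured with and without insulin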
Direction: replicate 1, z-score of dpERK with insulin and replicate 2, z-score of dpERK with insulin: higher = more active ERK per ERK-YFP after insulin; replicate 1, z-score of dpERK under basal conditions: higher = more basal active ERK per ERK-YFP; replicate 1, z-score of ERK-YFP with insulin: higher = more YFP-tagged ERK signal

no.	predicted target	dsRNA no.	replicate 1, z-score of dpERK with insulin	replicate 2, z-score of dpERK with insulin	replicate 1, z-score of dpERK under basal conditions	replicate 1, z-score of ERK-YFP with insulin
1	l(3)07882	1	-0.12	-0.24	-0.85	-0.04
2	CG3348	1	-0.26	0.01	0.98	-0.29
3	Tre1	1	-0.8	0.36	-0.32	-1.02
4	Capa	1	0.63	0.16	-0.27	-0.47
5	lncRNA:CR9162	1	0.17	0.39	0.15	1.31
6	SNCF	1	0.32	0.62	-0.37	-1.14
7	shu	1	-0.7	0.03	0.62	0.42
8	CG43333	1	0.42	1.6	-0.46	1.34
9	Takl2	1	0.44	-0.26	-0.21	0.58
10	CG13014	1	0.54	0.17	0.51	-0.35
11	CG14325	1	0.46	0	0.81	0.8
12	lncRNA:CR42646	1	0.84	0.95	-1.77	-0.9
13	bnl	1	-0.39	-0.41	0.56	0.08
14	bnl	2	-1.77	0.43	1.08	-2.56
15	CG34041	1	0.29	0.27	-0.69	0.07
16	CG4982	1	-1.68	-1.13	0.22	-0.55
17	dpr20	1	0.08	0.51	0.15	1
18	CG6701	1	-5.23	-4.83	-0.36	-0.29
19	CG2972	1	-0.63	-0.67	-0.48	0.08
20	CG9107	1	-1.17	-1.46	0.57	0.21
21	CG42717	1	0.95	0.31	-0.68	-0.17
22	RpLP1	1	-3.3	-3.35	-4.57	-2.57
23	RpLP1	2	1.85	-2.13	3.2	-2.48
24	Mer	1	0.33	1.36	0.86	0.19
25	CG14259	1	-0.52	-0.06	-0.23	0.37
26	Ugt303B3	1	-0.99	-0.2	-1.21	0.69
27	Dscam3	1	-0.68	-0.01	0.12	0.36
28	Dscam3	2	0.37	0.43	-0.44	-0.47
29	c12.1	1	0.9	0.07	0.14	-0.23

A stretch from the list above, as a working copy:
no.	predicted target	dsRNA no.	replicate 1, z-score of dpERK with insulin	replicate 2, z-score of dpERK with insulin	replicate 1, z-score of dpERK under basal conditions	replicate 1, z-score of ERK-YFP with insulin
16	CG4982	1	-1.68	-1.13	0.22	-0.55
17	dpr20	1	0.08	0.51	0.15	1
18	CG6701	1	-5.23	-4.83	-0.36	-0.29

The list goes on.
no.	predicted target	dsRNA no.	replicate 1, z-score of dpERK with insulin	replicate 2, z-score of dpERK with insulin	replicate 1, z-score of dpERK under basal conditions	replicate 1, z-score of ERK-YFP with insulin
30	CG43774 + CG43773	1	-0.48	-2.53	-0.97	-0.31
31	CG43774 + CG43773	2	1.43	0.61	0.3	0.58
32	CG42296	1	0.67	0.18	-0.14	-0.16
33	grk	1	-0.17	0.91	-0.21	0.44
34	CG42399	1	0.99	-0.16	-0.48	-0.75
35	CG42399	2	0.19	-0.11	0.47	-0.08
36	CG6295	1	0.55	0	-0.1	0.44
37	CR34254	1	-0.94	-1	-0.78	-0.34
38	TTLL5	1	-0.38	0.83	0.48	-0.4
39	Pnn	1	1.21	0.58	0.52	-0.53
40	arg	1	0	-0.38	0.26	1.4
41	comm	1	1.49	1.51	-1.56	-0.02
42	CG4995	1	0.69	0.08	0	0.09
43	dco	1	1.82	0.24	2.08	-0.42
44	dmrt11E	1	1.13	0.84	0.87	-0.25
45	CG7692	1	0.25	1.42	-1.33	0.86
46	Ir60e	1	0.33	0.23	-0.09	-0.24
47	CG33159	1	0.39	0.65	-1.02	0.36
48	CG32280	1	0.04	0.3	1.55	0.18
49	CG33093	1	0.27	0.68	-0.14	0.53
50	CG7634	1	0.23	0.87	0.1	0.1
51	Mal-A7	1	0.98	0.39	0.57	0.02
52	Daxx	1	0.37	1.1	-0.65	-0.19
53	CG1946	1	0.11	-0.06	0.01	-0.14
54	sdt	1	-2.07	-0.81	-0.63	0.56
55	sdt	2	-0.26	0.2	0.59	-0.23
56	sdt	3	1.68	0.92	-0.19	0.67
57	sdt	4	0.9	0.36	0.66	-0.48
58	sdt	5	1.07	0.69	0.12	0.36
59	sdt	6	-1.89	-1.82	-1.62	-1.08
60	sdt	7	-3.85	-3.25	-1.41	0.77
61	sdt	8	-0.06	0.27	-0.25	-0.4
62	sdt	9	0.02	0.59	-0.09	0.51
63	ZnT33D	1	0.35	-0.11	-0.25	0.39
64	bic	1	1.32	0.89	-0.71	-0.33
65	Listericin	1	-0.14	-0.18	0.72	-0.34
66	tey	1	1.33	-1.06	-0.92	-0.34
67	tey	2	0.01	-1.64	-0.12	-0.04
68	CG7252	1	0.13	-0.17	-0.35	0.57
69	CG7252	2	0.4	-0.37	-0.4	0.29
70	Obp49a	1	-0.2	0.1	0.06	0.55
71	CG3107	1	0.1	0.22	0.38	0.27
72	CG34429	1	-0.34	-0.17	0.19	0.35
73	CG12502	1	0.33	0.48	2.12	2.14
